The values that follow come from PMC10886677.

The target in this test is P21-activated kinase 1 (pig (endogenous in porcine oocytes)). Description: co-IP; lysate of 700 porcine oocytes per group (500 µL lysis buffer) incubated with 3 µL anti-PAK1 antibody at 4 °C overnight, protein A and G beads, immunoblotting; IP/Co-IP kit (Absin); oocytes during the MI-MII transition. On the technique in general: Immunoblotting shows a protein as a band on a membrane.

These are yes or no findings as the source states them, for the method shown. In cells and extracts the contact can be indirect. Binding can be weak; no strength is given.

B1: Aurora A (protein, UniProt A5GFW1 1-402)
chain: MDKCKENCISGLKTTVPPGDGPKRVPVTQHFPAQHLPSANSGQAQRVLCPSNSSQRLPSHTQKLVSSHKPVQNLKQKQSQATSGPRPVSRPLSNTQQSEQPQPAAPGNNPEKEAASKQKNEESKKRQWALEDFEIGRPLGKGKFGNVYLAREKQSKFILALKVLFKTQLEKAGVEHQLRREVEIQSHLRHPNILRLYGYFHDATRVYLILEYAPLGAVYRELQKLSKFDEQRTATYITELANALSYCHSKRVIHRDIKPENLLLGSAGELKIADFGWSVHAPSSRRTTLCGTLDYLPPEMIEGRMHDEKVDLWSLGVLCYEFLVGKPPFEANTYQETYKRISRVEFTFPDFVPEGARDLISRLLKHNPSHRPTLKEVLEHPWITANSKPASSHKKESTSKQP
As to B1, the binding result is “binds”.
